{"source": "patent EP0677293A1", "about": "“PHARMACEUTICAL USE OF TERPYRIDINE DERIVATIVE” (priority 1992, dated 1994)", "system": "Cerebral cortical neuronal cells from an 18-day-old rat embryo", "experiment": "Test on neurotrophic activity (living cells counted by fluorescein diacetate fluorescence, with or without hypoxic load)", "type": "cell-based", "settings": "ratio of fluorescent intensity to DMSO control = 1.0; for Neurotrophic Activity Hypoxic Load: hypoxic load (1% oxygen, 4 hours)", "protocol": "The neurotrophic activity was determined by the following method. Each compound was dissolved in DMSO to adjust the concentration in the range of 2 mg/ml to 10 mg/ml. Cerebral cortical neuronal cells from an 18-day-old rat embryo […] After 24 hours of incubation, the culture medium was removed and a 0.5 ml/well aliquot of a serum-free fresh DF medium containing the respective compounds having various concentrations, 5 µg/ml of transferrin, 5 µg/ml of insulin and 20 pmoles/ml of progesterone was supplemented to the system. For the purpose of comparison, the medium containing only DMSO was added was also prepared. At this stage, the two same plates were used. After 72 hours of incubation in various medium, hypoxia was loaded on one plate by reducing the concentration of oxygen to the minimum concentration of 1% using a N₂-O₂-CO₂ incubator (manufactured by Tabai, Model BNP-100) and culturing for 4 hours under the conditions. Another plate was cultured in an atmosphere of 5% CO₂ and 95% air, without hypoxic load. After the incubation was continued for further 48 hours, living cells were counted. The culture medium was removed and fluorescein diacetate (FDA) reagent was reacted. After washing with phosphate buffer, pH 7.4, the fluorescent intensity (E x 485/Em 530) was measured by CytoFlour^TM 2300, manufactured by Millipore.", "note": "At least one read-out could not be matched to a standard name with certainty.", "data": [{"compound": "Cc1ccc(-c2cc(-c3ccccn3)nc(-c3ccccn3)c2)cc1", "note": "[Compound 5, 4'-(4-Methylphenyl)-2,2':6',2''-terpyridine]", "values": [{"measurement": "Neurotrophic Activity Hypoxic Load", "setting": "2 µg/ml", "value": 3.3}, {"measurement": "Neurotrophic Activity No Hypoxic Load", "setting": "2 µg/ml", "value": 3.5}, {"measurement": "Neurotrophic Activity Hypoxic Load", "setting": "10 µg/ml", "value": 2.4}, {"measurement": "Neurotrophic Activity No Hypoxic Load", "setting": "10 µg/ml", "value": 3.2}]}, {"compound": "Cc1ccc(-c2cc(-c3ccccn3)nc(-c3ccccn3)c2)cc1.Cl.Cl.Cl", "note": "[Compound 6, 4'-(4-Methylphenyl)-2,2':6',2''-terpyridin trihydrochloride]", "values": [{"measurement": "Neurotrophic Activity Hypoxic Load", "setting": "2 µg/ml", "value": 2.7}, {"measurement": "Neurotrophic Activity No Hypoxic Load", "setting": "2 µg/ml", "value": 2.0}, {"measurement": "Neurotrophic Activity Hypoxic Load", "setting": "10 µg/ml", "value": 1.6}, {"measurement": "Neurotrophic Activity No Hypoxic Load", "setting": "10 µg/ml", "value": 1.3}]}]}
